PubChem BioAssay AID686943 – Drosophila RNAi Screening Center – 2013

Assay: 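Knockdowns that increase or decrease active ERK after insulin receptor stimulation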 (primary screen)
Cells: Drosophila S2R+ haemocyte-like cells expressing YFP-tagged ERK (Rolled)
Knock-down reagent: long dsRNA against Drosophila genes
Conditions: insulin stimulation versus unstimulated cells; dose and duration not given
Measured: 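Per-plate z-scores of phospho-ERK immunostaining normalised to YFP-tagged ERK, measured with and without insulin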
Direction: replicate 1, z-score of dpERK with insulin and replicate 2, z-score of dpERK with insulin: higher = more active ERK per ERK-YFP after insulin; replicate 1, z-score of dpERK under basal conditions: higher = more basal active ERK per ERK-YFP; replicate 1, z-score of ERK-YFP with insulin: higher = more YFP-tagged ERK signal
The screen tested about 23,000 reagents; this is an unselected part of those with a known target gene and a result. 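Extra replicates exist only for a retested subset of genes; insulin dose and duration not given; both raised and lowered dpERK matter.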 A plus sign joins genes that one reagent is predicted to hit. Not given: the amount of reagent, the time to read-out.

The opening 2 records as a preview:
gene knocked down | DRSC id | replicate 1, z-score of dpERK with insulin | replicate 2, z-score of dpERK with insulin | replicate 1, z-score of dpERK under basal conditions | replicate 1, z-score of ERK-YFP with insulin
AstCC | DRSC02404 | 0.07 | 0.66 | 0.1 | 0.07
Swip-1 | DRSC02083 | 0.12 | 0.18 | 0.42 | -0.35

Results, from the start:
gene knocked down | DRSC id | replicate 1, z-score of dpERK with insulin | replicate 2, z-score of dpERK with insulin | replicate 1, z-score of dpERK under basal conditions | replicate 1, z-score of ERK-YFP with insulin
AstCC | DRSC02404 | 0.07 | 0.66 | 0.1 | 0.07
Swip-1 | DRSC02083 | 0.12 | 0.18 | 0.42 | -0.35
Swip-1 | DRSC02084 | -0.77 | 0.5 | -0.01 | 0.94
CG14740 | DRSC14960 | 0.41 | 0.26 | -0.24 | 0.41
barr | DRSC03488 | 0.87 | -0.33 | 1.1 | -1.08
Orc1 | DRSC07496 | -0.9 | 0.11 | -1.7 | 0.4
CG7878 | DRSC16330 | -1.58 | 0.11 | -0.78 | 2.85
CG15144 | DRSC02445 | 0.79 | 0.31 | 0.42 | 0.65
mAChR-B | DRSC16345 | -2.4 | -2.85 | 1.32 | -1.54
mus304 | DRSC11372 | -0.81 | -0.03 | -0.04 | 1.39
CG6972 | DRSC16159 | 0.5 | 0.21 | 0.05 | -0.4
CG17186 | DRSC15180 | -0.01 | 0 | 0.24 | -0.65
CG6867 | DRSC20013 | 0.58 | 0.13 | 1.24 | 0.37
CG13000 | DRSC19519 | -2.07 | -1.64 | -1.03 | -0.26
CG17996 + Tsen2 | DRSC02650 | -0.93 | 0.42 | 0.19 | 1.07
Faf2 | DRSC03325 | 0.58 | 0.98 | 0.14 | -0.46
Qsox4 | DRSC14224 | 0.38 | 0.29 | 0.19 | -0.04
CG18284 | DRSC02661 | 0.13 | 0.53 | 0.97 | 0.25
CG18284 | DRSC20756 | 0.3 | -0.65 | -0.64 | -0.54
CG9727 | DRSC12585 | 0.85 | 0.03 | -1.4 | 0.71
CG16989 | DRSC18535 | -0.49 | -0.18 | 0.13 | -0.08
Cp15 | DRSC11118 | -0.08 | -0.32 | – | -0.13
sprt | DRSC07323 | 0.46 | 0.24 | 0.28 | 0.51
